# Test results published in patent US6740497B2, “Method and apparatus for detecting cancerous cells using molecules that change electrophoretic mobility” (The Regents of the University of California, priority 1998, dated 2004).
# At least one compound was matched to its structure with a doubt left.
# Test system: protein kinase C (PKC)
# Experiment: Time course of intracellular Fl-sPKC phosphorylation by PKC in single NIH/3T3 cells (laser lysis, capillary electrophoresis)
# Assay type: cell-based, murine
# Conditions: 100 nM PMA, room temperature (20°-23° C.), estimated from the 5 minute time point
compound,measurement,value
"CCCCCCCCCCCCCC(=O)O[C@@H]1[C@@H](C)[C@@]2(O)[C@@H](C=C(CO)C[C@]3(O)C(=O)C(C)=C[C@@H]23)[C@@H]2C(C)(C)[C@]12OC(C)=O [PMA, phorbol myristic acid]",rate of Fl-sPKC phosphorylation,6+/2 nM/s
